This test is described as follows: differential killing of epithelial or mesenchymal cells, primary screen, imaging, PC-3E GFP, TEM4-18 mCherry, co-culture (AID 1345086).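 Further: cells exposed to compound for 72 h before imaging.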 The settings on record: imaging cell counts, at 1 µM.

The list shows a part of the results.

Consider `CN(CCCl)CCCl`, for which the normalised cell number (measured here: epithelial PC-3E GFP cell survival) came out at 0.43 and the normalised cell number (measured here: mesenchymal TEM4-18 mCherry cell survival) amounted to 0.47.

Source of the values: PubChem BioAssay AID1345086 (University of Iowa High-Throughput Screening Core (UIHTS), 2018).
